Measurements published in PMC2546444 (PLoS ONE, 2008).
Some peptides are written in HELM: one residue between dots, names in brackets for other building blocks, links after the first $.

Test: general procedure: Boc solid-phase peptide synthesis; chloromethylated resin, 0.5–0.8 mequiv/g
Details: whole synthesis, 214 nm

| Substance | final HPLC purity |
| --- | --- |
| Cyclo(0-1a)[Asp^0, endo-(Lys^1a)]-All | 97% |
| Cyclo(1a-2a)[endo-(Asp^1a), endo-(Lys^2a)]-All | 95% |
| Cyclo(2a-3a)[endo-(Asp^2a), endo-(Lys^3a)]-All | 95% |
| PEPTIDE1{D.R.V.Y.I.H.P.F}$$$$V2.0 | 99% |
| [Asp^0, endo-(Lys^1a)]-All | 95% |
| [endo-(Asp^1a), endo-(Lys^2a)]-All | 98% |
| [endo-(Asp^2a), endo-(Lys^3a)]-All | 97% |

Same assay, conditions: whole synthesis, CZE 214 nm

| Substance | final purity (method not given) |
| --- | --- |
| Cyclo(0-1a)[Asp^0, endo-(Lys^1a)]-All | 97% |
| Cyclo(1a-2a)[endo-(Asp^1a), endo-(Lys^2a)]-All | 95% |
| Cyclo(2a-3a)[endo-(Asp^2a), endo-(Lys^3a)]-All | 95% |
| PEPTIDE1{D.R.V.Y.I.H.P.F}$$$$V2.0 | 98% |
| [Asp^0, endo-(Lys^1a)]-All | 96% |
| [endo-(Asp^1a), endo-(Lys^2a)]-All | 95% |
| [endo-(Asp^2a), endo-(Lys^3a)]-All | 96% |
